Assay results reported in PMC10559433.
Results are given in words; binding and its absence hold for the method and conditions named. In cells and extracts the contact can be indirect. Some results given as binding are weak or reduced against the parent protein; the word gives no strength.

By UniProt entry, the sequences of proteins in these tests, tags left out.
UniProt Q99873: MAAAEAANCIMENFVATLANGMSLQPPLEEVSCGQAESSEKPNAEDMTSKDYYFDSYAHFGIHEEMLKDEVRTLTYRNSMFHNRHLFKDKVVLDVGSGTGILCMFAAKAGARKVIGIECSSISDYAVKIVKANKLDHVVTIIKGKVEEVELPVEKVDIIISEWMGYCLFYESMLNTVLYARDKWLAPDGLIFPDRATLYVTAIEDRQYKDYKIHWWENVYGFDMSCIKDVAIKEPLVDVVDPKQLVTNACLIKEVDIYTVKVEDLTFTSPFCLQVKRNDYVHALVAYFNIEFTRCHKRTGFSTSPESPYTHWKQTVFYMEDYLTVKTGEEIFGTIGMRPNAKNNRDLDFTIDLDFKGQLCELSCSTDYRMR

Tests used:
[1] = biological target: T1, Peroxisome proliferator activated receptor coactivator-1a (PGC-1α) (human (endogenous in CNE1/CM and HNE2/HM)) (UniProt Q9UBK2); assay: co-IP; endogenous PRMT1 and PGC-1α in lysates of CNE1/CM and HNE2/HM cells cultured in suspension; also CM and HM cells with LMP1 knocked down; which protein was precipitated is not told
T1 sequence: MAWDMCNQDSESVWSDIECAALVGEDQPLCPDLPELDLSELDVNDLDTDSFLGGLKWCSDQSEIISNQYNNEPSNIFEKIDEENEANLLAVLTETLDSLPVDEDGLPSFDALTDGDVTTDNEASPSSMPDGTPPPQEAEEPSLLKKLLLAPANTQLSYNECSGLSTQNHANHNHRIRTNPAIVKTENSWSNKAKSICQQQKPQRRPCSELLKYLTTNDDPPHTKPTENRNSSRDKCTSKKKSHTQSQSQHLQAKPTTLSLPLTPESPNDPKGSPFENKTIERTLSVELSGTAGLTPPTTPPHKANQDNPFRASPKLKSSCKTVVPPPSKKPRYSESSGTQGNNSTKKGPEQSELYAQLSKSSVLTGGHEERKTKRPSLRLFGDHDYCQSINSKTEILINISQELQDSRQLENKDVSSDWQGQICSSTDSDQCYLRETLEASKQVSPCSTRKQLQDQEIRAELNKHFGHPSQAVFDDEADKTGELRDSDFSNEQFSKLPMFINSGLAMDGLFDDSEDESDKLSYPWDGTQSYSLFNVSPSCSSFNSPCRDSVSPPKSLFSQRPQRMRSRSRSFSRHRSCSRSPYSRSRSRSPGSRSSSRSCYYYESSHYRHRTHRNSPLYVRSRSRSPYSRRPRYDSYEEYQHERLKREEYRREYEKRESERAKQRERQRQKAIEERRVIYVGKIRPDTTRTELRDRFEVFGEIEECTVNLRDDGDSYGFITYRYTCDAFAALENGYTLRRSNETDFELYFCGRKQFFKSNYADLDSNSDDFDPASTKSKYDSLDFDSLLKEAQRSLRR

[2] = biological target: T2, PGC-1α (overexpression plasmid, 293T cells) (UniProt Q9UBK2); assay: co-IP; 293T cells overexpressing wild type or truncated flag-LMP1, PRMT1 and PGC-1α at once; which protein was precipitated is not told
T2 sequence: T1 sequence

Substance | binding [1] | binding [2]
Arginine methyltransferase 1 (PRMT1) (from UniProt Q99873 1-371) (enzyme) | binds | 
PRMT1 (overexpression plasmid, 293T cells) (from UniProt Q99873 1-371) (enzyme) |  | binds
